In the supplement of paper PMC6411743:
± gives the standard deviation of the averaged measurements. The list shows a part of the results, in another mix than the full data. Small differences around the control level are noise.

Protein sequences, listed by entry. Tags and fused reporters are not part of them. Lines headed by an entry give the natural chain unless they say otherwise; changes in a name come on top.
UniProt Q9HC35: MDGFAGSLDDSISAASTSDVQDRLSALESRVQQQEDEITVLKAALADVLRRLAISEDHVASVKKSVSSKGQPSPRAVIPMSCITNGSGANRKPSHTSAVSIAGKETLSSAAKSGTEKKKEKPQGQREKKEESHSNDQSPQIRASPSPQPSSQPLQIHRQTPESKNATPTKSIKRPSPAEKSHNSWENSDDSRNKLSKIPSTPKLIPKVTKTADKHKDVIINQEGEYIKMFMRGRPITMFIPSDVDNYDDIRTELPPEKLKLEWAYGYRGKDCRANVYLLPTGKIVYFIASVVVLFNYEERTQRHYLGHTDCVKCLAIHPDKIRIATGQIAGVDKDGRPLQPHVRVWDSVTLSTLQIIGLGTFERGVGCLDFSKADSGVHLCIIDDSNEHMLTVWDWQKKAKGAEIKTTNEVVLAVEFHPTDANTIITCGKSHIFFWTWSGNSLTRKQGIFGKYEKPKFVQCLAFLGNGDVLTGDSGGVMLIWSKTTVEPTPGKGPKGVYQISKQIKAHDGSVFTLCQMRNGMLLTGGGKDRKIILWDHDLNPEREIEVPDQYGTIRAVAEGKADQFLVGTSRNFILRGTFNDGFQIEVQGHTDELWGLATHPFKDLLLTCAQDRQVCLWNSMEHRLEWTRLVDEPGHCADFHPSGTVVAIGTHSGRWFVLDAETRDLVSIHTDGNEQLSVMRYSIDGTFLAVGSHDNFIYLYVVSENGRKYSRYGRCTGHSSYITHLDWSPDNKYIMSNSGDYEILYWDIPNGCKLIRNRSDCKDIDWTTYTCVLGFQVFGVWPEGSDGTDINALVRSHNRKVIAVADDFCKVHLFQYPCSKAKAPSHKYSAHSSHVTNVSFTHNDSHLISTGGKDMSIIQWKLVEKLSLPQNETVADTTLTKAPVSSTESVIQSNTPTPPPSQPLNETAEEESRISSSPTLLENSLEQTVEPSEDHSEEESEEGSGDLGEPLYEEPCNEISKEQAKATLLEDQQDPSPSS
UniProt Q9HCD6: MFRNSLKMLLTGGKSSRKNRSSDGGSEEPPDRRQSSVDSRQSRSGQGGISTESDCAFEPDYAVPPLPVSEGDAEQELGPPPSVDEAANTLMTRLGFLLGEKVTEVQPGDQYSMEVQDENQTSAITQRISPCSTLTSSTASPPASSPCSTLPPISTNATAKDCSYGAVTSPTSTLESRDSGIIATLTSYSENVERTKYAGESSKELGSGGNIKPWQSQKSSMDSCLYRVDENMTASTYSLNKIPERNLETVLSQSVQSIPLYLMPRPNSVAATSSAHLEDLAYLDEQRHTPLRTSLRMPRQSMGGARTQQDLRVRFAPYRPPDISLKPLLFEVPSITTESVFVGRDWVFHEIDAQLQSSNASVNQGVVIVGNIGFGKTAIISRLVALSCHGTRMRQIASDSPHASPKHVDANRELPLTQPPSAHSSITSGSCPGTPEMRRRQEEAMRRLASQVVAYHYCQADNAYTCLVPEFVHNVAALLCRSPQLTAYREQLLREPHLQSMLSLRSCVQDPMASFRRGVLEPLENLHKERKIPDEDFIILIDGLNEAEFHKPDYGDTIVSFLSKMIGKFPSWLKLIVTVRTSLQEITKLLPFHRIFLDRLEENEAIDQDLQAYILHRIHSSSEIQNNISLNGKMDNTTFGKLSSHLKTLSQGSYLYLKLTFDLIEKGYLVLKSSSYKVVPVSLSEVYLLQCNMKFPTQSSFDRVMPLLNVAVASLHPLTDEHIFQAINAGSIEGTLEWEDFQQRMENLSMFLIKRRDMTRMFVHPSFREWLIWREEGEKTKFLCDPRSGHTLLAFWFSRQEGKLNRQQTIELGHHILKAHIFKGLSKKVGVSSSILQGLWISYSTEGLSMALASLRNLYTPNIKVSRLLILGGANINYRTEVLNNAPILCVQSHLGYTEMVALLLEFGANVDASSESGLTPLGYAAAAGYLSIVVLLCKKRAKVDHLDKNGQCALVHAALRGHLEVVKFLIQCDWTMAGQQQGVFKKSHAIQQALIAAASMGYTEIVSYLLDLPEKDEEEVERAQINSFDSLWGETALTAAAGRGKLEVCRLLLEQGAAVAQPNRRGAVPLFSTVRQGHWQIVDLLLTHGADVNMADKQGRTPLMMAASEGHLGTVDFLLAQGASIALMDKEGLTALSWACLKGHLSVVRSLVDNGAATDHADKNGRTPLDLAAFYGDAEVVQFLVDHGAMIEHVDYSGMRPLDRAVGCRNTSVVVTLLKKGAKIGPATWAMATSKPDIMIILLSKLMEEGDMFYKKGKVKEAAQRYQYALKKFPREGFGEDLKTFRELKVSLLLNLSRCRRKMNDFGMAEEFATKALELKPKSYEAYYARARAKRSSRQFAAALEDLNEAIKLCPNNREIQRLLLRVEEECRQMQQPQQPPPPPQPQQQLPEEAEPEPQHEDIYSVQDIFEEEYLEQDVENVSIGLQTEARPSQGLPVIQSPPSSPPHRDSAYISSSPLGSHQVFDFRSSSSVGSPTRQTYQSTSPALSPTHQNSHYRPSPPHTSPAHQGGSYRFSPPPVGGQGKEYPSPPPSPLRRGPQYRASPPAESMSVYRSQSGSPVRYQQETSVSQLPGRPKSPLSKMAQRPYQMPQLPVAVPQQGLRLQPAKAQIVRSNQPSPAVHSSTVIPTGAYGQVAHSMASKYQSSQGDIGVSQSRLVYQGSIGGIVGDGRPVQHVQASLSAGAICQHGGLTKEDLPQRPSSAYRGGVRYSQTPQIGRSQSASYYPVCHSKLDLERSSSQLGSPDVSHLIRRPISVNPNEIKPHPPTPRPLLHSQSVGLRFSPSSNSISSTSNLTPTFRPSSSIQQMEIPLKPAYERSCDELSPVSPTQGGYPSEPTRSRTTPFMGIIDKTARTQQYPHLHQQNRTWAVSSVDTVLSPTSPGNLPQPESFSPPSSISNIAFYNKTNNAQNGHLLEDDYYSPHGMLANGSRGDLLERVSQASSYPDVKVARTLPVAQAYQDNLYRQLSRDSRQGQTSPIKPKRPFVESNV
UniProt Q9HD40: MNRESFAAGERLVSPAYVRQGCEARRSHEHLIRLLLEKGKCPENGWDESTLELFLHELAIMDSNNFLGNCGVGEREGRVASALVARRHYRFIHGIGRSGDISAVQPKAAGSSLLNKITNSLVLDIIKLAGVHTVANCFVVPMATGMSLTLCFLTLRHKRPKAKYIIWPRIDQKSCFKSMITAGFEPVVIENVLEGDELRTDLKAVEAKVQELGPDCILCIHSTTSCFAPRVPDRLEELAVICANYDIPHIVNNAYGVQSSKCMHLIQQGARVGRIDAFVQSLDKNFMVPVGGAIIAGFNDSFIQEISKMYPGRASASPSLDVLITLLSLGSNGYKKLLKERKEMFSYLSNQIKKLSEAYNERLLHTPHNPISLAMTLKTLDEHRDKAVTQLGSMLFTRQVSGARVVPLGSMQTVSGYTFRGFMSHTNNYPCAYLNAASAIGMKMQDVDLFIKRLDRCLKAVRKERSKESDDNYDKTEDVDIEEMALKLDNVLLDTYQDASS
UniProt Q9HD15: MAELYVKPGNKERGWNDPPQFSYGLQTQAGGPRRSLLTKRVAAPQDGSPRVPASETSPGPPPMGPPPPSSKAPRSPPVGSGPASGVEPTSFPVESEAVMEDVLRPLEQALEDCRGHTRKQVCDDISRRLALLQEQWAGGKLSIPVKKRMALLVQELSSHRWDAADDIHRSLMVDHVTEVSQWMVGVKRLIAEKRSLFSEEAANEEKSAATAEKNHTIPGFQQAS
UniProt Q9H871: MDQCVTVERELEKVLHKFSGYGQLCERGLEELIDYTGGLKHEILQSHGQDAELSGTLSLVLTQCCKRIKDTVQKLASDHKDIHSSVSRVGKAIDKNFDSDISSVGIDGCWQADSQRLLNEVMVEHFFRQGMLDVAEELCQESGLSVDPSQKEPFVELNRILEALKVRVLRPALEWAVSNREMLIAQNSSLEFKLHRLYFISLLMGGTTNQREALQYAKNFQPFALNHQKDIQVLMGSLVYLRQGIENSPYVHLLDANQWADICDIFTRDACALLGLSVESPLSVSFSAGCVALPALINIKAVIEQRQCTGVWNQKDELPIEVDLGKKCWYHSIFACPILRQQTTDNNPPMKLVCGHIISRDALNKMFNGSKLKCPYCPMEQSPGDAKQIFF
UniProt Q9HD20: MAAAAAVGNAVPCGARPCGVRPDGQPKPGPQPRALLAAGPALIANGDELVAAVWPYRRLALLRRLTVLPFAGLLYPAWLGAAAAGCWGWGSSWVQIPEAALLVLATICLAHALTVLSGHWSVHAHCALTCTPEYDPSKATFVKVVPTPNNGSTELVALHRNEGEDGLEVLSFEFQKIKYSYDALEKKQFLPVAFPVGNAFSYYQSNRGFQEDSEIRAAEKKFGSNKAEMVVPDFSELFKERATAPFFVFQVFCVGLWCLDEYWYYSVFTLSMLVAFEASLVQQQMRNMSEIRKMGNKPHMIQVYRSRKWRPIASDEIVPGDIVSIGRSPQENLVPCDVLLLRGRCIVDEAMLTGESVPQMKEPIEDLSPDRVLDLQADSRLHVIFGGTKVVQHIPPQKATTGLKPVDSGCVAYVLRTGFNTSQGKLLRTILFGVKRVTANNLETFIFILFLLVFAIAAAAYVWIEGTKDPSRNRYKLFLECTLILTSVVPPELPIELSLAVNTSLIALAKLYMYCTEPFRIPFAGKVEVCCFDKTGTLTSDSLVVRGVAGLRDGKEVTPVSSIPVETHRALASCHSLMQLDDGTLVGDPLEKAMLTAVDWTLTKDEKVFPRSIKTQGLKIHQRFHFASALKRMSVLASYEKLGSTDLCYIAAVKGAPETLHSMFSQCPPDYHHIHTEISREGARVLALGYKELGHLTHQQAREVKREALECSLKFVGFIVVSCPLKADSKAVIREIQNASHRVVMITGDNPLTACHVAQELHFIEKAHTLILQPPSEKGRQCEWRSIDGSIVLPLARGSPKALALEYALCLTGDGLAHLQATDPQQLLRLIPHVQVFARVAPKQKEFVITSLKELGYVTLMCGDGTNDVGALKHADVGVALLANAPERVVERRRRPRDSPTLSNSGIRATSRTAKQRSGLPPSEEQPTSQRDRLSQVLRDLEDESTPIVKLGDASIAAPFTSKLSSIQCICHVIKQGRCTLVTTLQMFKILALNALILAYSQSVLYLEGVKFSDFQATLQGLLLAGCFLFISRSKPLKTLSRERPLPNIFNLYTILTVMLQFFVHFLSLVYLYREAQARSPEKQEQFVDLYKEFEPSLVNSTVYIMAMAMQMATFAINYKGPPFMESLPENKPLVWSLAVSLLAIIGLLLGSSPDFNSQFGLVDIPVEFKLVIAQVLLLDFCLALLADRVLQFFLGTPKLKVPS
UniProt Q9GZZ9, whole entry: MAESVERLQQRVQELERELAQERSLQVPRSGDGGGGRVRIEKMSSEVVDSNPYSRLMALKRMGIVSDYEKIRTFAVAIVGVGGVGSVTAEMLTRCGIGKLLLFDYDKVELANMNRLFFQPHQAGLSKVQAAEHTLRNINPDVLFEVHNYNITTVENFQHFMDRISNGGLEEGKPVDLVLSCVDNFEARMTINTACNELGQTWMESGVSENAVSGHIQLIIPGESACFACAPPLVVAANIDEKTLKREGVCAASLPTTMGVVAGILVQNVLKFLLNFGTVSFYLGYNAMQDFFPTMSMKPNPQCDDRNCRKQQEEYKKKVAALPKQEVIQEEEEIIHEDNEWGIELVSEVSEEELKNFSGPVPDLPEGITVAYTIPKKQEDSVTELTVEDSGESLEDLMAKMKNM
UniProt Q9HAS0: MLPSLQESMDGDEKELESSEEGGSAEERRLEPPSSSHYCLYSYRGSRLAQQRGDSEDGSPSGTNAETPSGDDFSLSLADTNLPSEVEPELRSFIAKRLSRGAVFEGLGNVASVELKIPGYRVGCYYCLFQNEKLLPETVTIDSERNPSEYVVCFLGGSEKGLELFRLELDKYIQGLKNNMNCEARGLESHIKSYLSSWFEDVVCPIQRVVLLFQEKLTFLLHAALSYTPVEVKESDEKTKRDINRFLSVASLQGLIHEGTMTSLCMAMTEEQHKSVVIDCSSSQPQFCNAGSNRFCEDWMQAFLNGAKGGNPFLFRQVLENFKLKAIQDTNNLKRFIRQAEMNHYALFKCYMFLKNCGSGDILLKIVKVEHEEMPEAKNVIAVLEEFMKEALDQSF
UniProt Q9H3K6: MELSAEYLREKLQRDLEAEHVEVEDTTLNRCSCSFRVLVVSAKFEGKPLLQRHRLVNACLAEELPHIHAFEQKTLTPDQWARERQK
UniProt Q9NPF4: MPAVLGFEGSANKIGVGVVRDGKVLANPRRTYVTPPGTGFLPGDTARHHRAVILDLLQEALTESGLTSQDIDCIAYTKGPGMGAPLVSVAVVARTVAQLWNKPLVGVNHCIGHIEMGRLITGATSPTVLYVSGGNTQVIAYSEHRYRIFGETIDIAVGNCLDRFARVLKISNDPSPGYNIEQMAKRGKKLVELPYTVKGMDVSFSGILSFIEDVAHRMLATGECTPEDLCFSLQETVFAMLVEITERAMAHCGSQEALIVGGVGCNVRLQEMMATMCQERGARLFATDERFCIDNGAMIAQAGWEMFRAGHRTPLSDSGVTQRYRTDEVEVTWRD

Compound: Nc1ncnc2c1ncn2[C@@H]1O[C@H](COP(=O)(O)OP(=O)(O)NP(=O)(O)O)[C@@H](O)[C@H]1O [adenylyl imidodiphosphate]
Experiment: NP40-soluble protein abundance relative to vehicle (solubility fold change) (ratio); higher = more soluble protein in presence of AMP-PNP
Summary of the method: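 Across three independent experiments, values are fold changes against the detergent-processed vehicle for each replicate, based on vsn-normalised intensities. The samples were Jurkat crude lysate treated with eight concentrations (0.1 to 10 mM) for 10 min at room temperature and then 3 min at 37 °C. Lysate was solubilised with 0.8% NP40 and benzonase, ultracentrifuged, and the supernatant analysed by TMT-labelled LC-MS/MS.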

Target	NP40-soluble protein abundance (concentration: 0.1mM)	NP40-soluble protein abundance (concentration: 0.5mM)
CWC22 (UniProt Q9HCG8)	0.961 ± 0.024	1 ± 0.04
UniProt Q9H1K0	0.985 ± 0.013	0.982 ± 0.044
EML4 (UniProt Q9HC35)	0.985 ± 0.025	0.976 ± 0.018
UniProt Q9HCD6 and related entries	1.015 ± 0.0024	1.006 ± 0.0072
SEPSECS (UniProt Q9HD40)	1.01 ± 0.011	0.968 ± 0.05
SRA1 (UniProt Q9HD15)	0.959 ± 0.022	0.954 ± 0.028
UniProt Q9H871	1.01 ± 0.029	0.979 ± 0.013
UniProt Q9BZQ6-2	1 ± 0.021	0.988 ± 0.025
UniProt Q9H7C9 and related entries	0.955 ± 0.021	1.02 ± 0.061
CHD8 (UniProt Q9HCK8)	1.006 ± 0.0061	0.989 ± 0.018
UniProt Q9HD20 and related entries	1.02 ± 0.013	1.04 ± 0.054
WDR33 (UniProt Q9C0J8)	0.996 ± 0.015	1.02 ± 0.022
UBA5 (UniProt Q9GZZ9)	0.99 ± 0.017	1 ± 0.018
C17orf75 (UniProt Q9HAS0)	0.995 ± 0.019	1.01 ± 0.042
UniProt Q9HCC0-2	0.97 ± 0.016	0.9874 ± 0.0025
PDF (UniProt Q9HBH1)	0.994 ± 0.047	0.986 ± 0.046
UniProt Q9H7E2-3	1.03 ± 0.042	1.03 ± 0.041
RAB18 (UniProt Q9NP72)	0.989 ± 0.019	0.9958 ± 0.0061
BOLA2 (UniProt Q9H3K6)	0.984 ± 0.066	1.07 ± 0.11
PARP12 (UniProt Q9H0J9)	0.999 ± 0.025	0.986 ± 0.022
OSGEP (UniProt Q9NPF4)	0.992 ± 0.016	0.98 ± 0.039
UNK (UniProt Q9C0B0)	1.005 ± 0.0037	1.04 ± 0.057

Quoted from the listing.
Value of OSGEP (UniProt Q9NPF4) under NP40-soluble protein abundance (concentration: 0.1mM): 0.992 ± 0.016
Value of WDR33 (UniProt Q9C0J8) under NP40-soluble protein abundance (concentration: 0.1mM): 0.996 ± 0.015
